# Measurements from US20060058263A1, “Heat pasturized liquids containing glucosamine” (priority 2002, published 2006).
# The name of at least one read-out is uncertain.
# Assay: Amount of GLCN present following heating (HPAEC-PAD recovery)
# Format: physicochemical
# Conditions: beverages after exposure to high temperatures (summary of Table 7)
# Experimental: To determine the amount of GLCN that remains following exposing GLCN beverages to a high temperature, such as those used in pasteurization, the following methods were used.
# A beverage sample as described in the preceding examples containing […] of GLCN was dispersed in 25 g of 1.0 N HCl in a 50-mL polypropylene centrifuge tube and capped tightly. The sample was mixed for 30 seconds using a vortex mixer, then placed in a water bath at 37° C. The sample was removed from the water bath at 15-minute intervals, mixed for 30 seconds on a vortex mixer, then returned to the water bath. This cycle was repeated until the sample had been in the water bath for one hour.
# After heating, the sample was mixed for 30 seconds on a vortex mixer, then centrifuged for 10 minutes to separate the liquid and solid phases. Fats, oils or lipids in the sample formed a third layer at the top of the tube. A 1-g aliquot of the aqueous sample portion was diluted 100-fold with deionized water, then transferred to an autosampler vial with filter cap.
# The free glucosamine in prepared samples was determined using high performance anion-exchange chromatography with pulsed amperometric detection (IPAEC-PAD). […]
# The method was adapted from Dionex Corporation Technical Note 40. […] Multiple standards were analyzed before and after each sample set.
smiles,measurement,value
"N[C@H]1C(O)O[C@H](CO)[C@@H](O)[C@@H]1O (stereo partly shown) [GLCN, glucosamine]",amount of recovery for GLCN,about 100%
